Test [1] addresses T1, Na+/K+/2Cl- cotransporter NKCC2 (solute carrier family 12 member 1) (rat (endogenous in medullary TAL)) (UniProt P55016).
T1 sequence: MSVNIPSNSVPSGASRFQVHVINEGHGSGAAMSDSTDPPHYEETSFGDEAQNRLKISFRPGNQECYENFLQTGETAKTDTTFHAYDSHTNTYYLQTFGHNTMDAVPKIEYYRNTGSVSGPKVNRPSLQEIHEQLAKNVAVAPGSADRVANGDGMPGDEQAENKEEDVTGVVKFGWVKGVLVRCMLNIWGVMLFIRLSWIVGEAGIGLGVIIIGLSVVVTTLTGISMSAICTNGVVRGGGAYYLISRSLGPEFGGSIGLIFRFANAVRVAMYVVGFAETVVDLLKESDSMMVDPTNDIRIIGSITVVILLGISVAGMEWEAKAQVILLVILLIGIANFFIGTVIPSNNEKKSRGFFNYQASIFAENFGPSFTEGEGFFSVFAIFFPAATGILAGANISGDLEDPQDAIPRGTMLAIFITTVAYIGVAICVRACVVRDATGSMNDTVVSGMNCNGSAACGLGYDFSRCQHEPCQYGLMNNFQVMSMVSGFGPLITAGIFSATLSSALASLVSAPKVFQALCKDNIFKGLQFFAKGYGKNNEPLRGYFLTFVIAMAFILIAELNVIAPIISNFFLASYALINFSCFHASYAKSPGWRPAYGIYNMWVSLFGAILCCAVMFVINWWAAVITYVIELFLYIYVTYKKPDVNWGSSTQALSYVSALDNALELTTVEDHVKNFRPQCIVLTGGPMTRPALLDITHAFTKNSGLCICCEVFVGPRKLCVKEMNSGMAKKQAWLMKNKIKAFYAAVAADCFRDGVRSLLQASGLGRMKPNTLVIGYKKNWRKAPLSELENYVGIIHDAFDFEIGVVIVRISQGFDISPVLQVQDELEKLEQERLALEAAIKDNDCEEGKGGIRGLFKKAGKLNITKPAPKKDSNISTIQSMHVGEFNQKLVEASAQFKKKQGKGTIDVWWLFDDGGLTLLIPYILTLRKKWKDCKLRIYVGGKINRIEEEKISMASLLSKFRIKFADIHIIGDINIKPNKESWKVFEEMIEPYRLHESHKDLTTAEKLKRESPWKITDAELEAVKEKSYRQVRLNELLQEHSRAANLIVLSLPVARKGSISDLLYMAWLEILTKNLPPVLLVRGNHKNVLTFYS
The test can be described thus: co-IP; rat medullary TAL lysate (100 µg, precleared with protein A/G agarose) incubated with 2 µg anti-NKCC2 (carboxyl terminus) antibody at 4°C; ACTN4 detected by Western blot.

Protein sequences, listed by entry. Tags and fused reporters are not part of them.
UniProt O43707: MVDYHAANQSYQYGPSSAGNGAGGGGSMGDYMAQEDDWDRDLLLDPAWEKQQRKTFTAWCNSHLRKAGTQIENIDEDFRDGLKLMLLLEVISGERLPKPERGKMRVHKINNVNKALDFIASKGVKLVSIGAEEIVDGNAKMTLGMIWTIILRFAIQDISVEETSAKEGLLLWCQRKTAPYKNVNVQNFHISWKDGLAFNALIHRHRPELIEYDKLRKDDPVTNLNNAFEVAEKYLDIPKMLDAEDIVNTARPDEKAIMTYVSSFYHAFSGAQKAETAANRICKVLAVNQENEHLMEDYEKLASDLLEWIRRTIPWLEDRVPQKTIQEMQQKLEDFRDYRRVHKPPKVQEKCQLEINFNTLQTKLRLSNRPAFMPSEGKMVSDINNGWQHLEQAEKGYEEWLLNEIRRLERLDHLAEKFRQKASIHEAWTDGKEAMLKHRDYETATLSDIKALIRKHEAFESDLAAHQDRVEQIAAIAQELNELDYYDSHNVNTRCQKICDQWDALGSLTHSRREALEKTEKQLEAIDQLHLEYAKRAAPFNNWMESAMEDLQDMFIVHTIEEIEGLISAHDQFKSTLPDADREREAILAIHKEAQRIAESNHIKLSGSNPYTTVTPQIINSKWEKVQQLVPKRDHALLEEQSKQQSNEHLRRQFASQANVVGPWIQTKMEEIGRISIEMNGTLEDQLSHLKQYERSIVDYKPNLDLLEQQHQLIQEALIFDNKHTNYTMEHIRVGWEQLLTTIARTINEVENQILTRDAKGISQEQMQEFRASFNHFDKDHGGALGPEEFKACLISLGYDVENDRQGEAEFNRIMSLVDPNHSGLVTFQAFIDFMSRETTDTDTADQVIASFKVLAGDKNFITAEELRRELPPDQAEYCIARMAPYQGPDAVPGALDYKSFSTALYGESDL
UniProt Q9QXQ0: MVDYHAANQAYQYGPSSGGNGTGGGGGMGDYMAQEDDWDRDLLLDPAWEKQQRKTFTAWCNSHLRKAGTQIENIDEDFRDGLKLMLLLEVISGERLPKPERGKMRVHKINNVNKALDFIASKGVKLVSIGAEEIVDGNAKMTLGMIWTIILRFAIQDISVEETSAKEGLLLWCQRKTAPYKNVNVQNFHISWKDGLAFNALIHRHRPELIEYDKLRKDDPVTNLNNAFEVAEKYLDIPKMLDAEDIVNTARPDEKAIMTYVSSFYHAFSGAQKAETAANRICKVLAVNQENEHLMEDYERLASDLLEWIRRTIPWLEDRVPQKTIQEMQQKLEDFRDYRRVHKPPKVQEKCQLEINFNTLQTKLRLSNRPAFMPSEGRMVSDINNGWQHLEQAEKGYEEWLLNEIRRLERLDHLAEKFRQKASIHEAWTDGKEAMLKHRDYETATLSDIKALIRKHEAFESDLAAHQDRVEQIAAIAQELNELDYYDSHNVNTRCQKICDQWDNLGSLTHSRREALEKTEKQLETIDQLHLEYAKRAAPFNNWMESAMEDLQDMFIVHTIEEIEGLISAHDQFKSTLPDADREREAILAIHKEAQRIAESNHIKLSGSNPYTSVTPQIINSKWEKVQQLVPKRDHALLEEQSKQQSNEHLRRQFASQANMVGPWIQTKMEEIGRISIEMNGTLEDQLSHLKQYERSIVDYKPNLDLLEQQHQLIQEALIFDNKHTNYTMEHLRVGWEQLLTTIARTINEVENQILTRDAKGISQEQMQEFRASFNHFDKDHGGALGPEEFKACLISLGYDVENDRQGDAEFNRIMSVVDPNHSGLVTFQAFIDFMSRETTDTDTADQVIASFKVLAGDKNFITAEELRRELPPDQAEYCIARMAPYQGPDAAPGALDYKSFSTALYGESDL

Test [2] addresses GST-full-length ACTN4 (glutathione-S-transferase-fusion actinin-4) (UniProt O43707). Nature of the test: pull-down; purified GST-ACTN4 (full length) or GST alone on glutathione beads with rat TAL lysate; NKCC2 detected by Western blot; only the target purified.

No constants are given. Whether binding was seen depends on the method and setting. In cells and extracts the contact can be indirect. Some entries that bind do so weakly or less than the wild type.

With “actinin-4 (ACTN4), endogenous (from UniProt Q9QXQ0 1-911)”, the binding result in test [1] is “binds”.

B1: Na+/K+/2Cl- cotransporter NKCC2 (solute carrier family 12 member 1) (protein, UniProt P55016 1-1095)
chain: T1 sequence
Consider B1, for which, in test [2], the binding entry is “binds”.
